These are yes or no findings as the source states them, for the method shown. Binding seen in cells or lysates may run through a third protein. Some results given as binding are weak or reduced against the parent protein; the word gives no strength. Sequences can lack the tags named with a protein. One block for each binder: values may come before it.
How the values were obtained:
[1] = target: T1, Bazooka endogenously tagged with GFP (Baz::GFP) (Drosophila (endogenous in embryos and wing imaginal discs)) (UniProt O96782); experiment: proximity ligation; Duolink PLA on fixed third instar wing imaginal discs; anti-GFP with anti-Magi or anti-aPKC antibodies; controls with one antibody only
T1 sequence: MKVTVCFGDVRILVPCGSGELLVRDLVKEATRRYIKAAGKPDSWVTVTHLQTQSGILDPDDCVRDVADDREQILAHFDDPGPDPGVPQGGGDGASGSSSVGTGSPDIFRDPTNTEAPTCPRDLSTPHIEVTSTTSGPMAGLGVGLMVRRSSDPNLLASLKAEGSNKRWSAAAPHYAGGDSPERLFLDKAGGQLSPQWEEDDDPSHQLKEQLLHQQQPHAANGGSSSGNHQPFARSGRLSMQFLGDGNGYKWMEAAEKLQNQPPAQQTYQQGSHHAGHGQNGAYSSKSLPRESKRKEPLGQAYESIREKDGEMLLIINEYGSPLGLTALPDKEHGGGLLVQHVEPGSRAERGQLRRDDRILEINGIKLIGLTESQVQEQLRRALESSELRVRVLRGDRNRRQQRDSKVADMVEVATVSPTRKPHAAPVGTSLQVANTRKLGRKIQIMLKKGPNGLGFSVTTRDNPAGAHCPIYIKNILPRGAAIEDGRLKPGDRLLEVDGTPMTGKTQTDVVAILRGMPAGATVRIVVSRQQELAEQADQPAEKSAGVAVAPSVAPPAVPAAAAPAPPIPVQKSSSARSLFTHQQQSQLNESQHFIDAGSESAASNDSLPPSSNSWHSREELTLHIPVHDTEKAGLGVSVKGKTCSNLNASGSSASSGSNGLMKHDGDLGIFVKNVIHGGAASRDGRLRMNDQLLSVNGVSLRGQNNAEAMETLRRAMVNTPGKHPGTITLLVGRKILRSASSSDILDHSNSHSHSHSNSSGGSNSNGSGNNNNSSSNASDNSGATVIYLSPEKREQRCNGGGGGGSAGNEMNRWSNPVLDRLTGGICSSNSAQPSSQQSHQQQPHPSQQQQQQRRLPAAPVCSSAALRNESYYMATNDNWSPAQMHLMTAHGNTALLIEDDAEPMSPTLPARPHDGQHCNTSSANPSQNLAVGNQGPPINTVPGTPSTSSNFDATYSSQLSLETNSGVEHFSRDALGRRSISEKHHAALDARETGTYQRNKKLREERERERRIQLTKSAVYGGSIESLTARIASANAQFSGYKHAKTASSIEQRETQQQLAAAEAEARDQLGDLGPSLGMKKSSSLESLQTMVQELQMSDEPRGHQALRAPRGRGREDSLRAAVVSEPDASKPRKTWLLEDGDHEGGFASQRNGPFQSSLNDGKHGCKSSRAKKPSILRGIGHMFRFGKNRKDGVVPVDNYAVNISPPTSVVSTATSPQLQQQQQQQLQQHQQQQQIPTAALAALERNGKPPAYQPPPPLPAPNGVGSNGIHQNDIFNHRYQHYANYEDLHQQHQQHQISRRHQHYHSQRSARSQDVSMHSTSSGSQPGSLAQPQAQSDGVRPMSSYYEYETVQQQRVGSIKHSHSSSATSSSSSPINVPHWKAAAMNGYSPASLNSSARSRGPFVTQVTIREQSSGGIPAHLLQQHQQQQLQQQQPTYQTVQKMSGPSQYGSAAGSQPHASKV

[2] = target: T1, Bazooka endogenously tagged with GFP (Baz::GFP) (Drosophila (endogenous in embryos and wing imaginal discs)); experiment: co-IP; Baz::GFP embryo extract precipitated with a Baz antibody; Western blot

binding [1]: binds
binding [2]: binds
B1: aPKC (enzyme, UniProt A1Z9X0 1-606)
chain: MQKMPSQILNDGSSVSLNSASMNMANTPNSITVKTAYNGQIIITTINKNISYEELCYEIRNICRFPLDQPFTIKWVDEENDPCTISTKMELDEAIRLYEMNFDSQLVIHVFPNVPQAPGLSCDGEDRSIYRRGARRWRKLYRVNGHIFQAKRFNRRAFCAYCQDRIWGLGRQGFKCIQCKLLVHKKCHKLVQKHCTDQPEPLVKERAEESSDPIPVPLPPLPYEAMSGGAEACETHDHAHIVAPPPPEDPLEPGTQRQYSLNDFELIRVIGRGSYAKVLMVELRRTRRIYAMKVIKKALVTDDEDIDWVQTEKHVFETASNHPFLVGLHSCFQTPSRLFFVIEFVRGGDLMYHMQRQRRLPEEHARFYAAEISLALNFLHEKGIIYRDLKLDNVLLDHEGHIKLTDYGMCKEGIRPGDTTSTFCGTPNYIAPEILRGEDYGFSVDWWALGVLLYEMLAGRSPFDLAGASENPDQNTEDYLFQVILEKTIRIPRSLSVRAASVLKGFLNKNPADRLGCHRESAFMDIVSHPFFKNMDWELLERKQVTPPFKPRLDSDRDLANFPPEFTGEAVQLTPDDDHVIDNIDQSEFEGFEYVNPLLMSLEDCV

binding [2]: no binding
B2: Discs-large (protein, UniProt P31007 1-970)
chain: MPVKKQEAHRALELLEDYHARLSEPQDRALRIAIERVIRIFKSRLFQALLDIQEFYELTLLDDSKSIQQKTAETLQIATKWEKDGQAVKIADFIKSSNLNRNCAYEFNNDASSNQTNQSALNQNPIANNVSAQAQAEALSRTFKSELEEILNQRMRIESDTENAKEPTVEQQQKQQQAQQRSSRSPQQQNPQQQQGSKSRSGSQTVNGDDSWLYEDIQLERGNSGLGFSIAGGTDNPHIGTDTSIYITKLISGGAAAADGRLSINDIIVSVNDVSVVDVPHASAVDALKKAGNVVKLHVKRKRGTATTPAAGSAAGDARDSAASGPKVIEIDLVKGGKGLGFSIAGGIGNQHIPGDNGIYVTKLMDGGAAQVDGRLSIGDKLIAVRTNGSEKNLENVTHELAVATLKSITDKVTLIIGKTQHLTTSASGGGGGGLSSGQQLSQSQSQLATSQSQSQVHQQQHATPMVNSQSTEPGSRYASTNVLAAVPPGTPRAVSTEDITREPRTITIQKGPQGLGFNIVGGEDGQGIYVSFILAGGPADLGSELKRGDQLLSVNNVNLTHATHEEAAQALKTSGGVVTLLAQYRPEEYNRFEARIQELKQQAALGAGGSGTLLRTTQKRSLYVRALFDYDPNRDDGLPSRGLPFKHGDILHVTNASDDEWWQARRVLGDNEDEQIGIVPSKRRWERKMRARDRSVKFQGHAAANNNLDKQSTLDRKKKNFTFSRKFPFMKSRDEKNEDGSDQEPFMLCYTQDDANAEGASEENVLSYEAVQRLSINYTRPVIILGPLKDRINDDLISEYPDKFGSCVPHTTRPKREYEVDGRDYHFVSSREQMERDIQNHLFIEAGQYNDNLYGTSVASVREVAEKGKHCILDVSGNAIKRLQVAQLYPVAVFIKPKSVDSVMEMNRRMTEEQAKKTYERAIKMEQEFGEYFTGVVQGDTIEEIYSKVKSMIWSQSGPTIWVPSKESL

— article PMC4830575
